Laboratory results taken from article PMC5532388.
No constants are given. Whether binding was seen depends on the method and setting. In cells and extracts the contact can be indirect. Some binding calls cover weakened binding; strength is not graded here.

Sequences of proteins named here, by UniProt entry; tags and fusion partners are left off. Residues count along the entry.
UniProt P48356, residues 22-1162: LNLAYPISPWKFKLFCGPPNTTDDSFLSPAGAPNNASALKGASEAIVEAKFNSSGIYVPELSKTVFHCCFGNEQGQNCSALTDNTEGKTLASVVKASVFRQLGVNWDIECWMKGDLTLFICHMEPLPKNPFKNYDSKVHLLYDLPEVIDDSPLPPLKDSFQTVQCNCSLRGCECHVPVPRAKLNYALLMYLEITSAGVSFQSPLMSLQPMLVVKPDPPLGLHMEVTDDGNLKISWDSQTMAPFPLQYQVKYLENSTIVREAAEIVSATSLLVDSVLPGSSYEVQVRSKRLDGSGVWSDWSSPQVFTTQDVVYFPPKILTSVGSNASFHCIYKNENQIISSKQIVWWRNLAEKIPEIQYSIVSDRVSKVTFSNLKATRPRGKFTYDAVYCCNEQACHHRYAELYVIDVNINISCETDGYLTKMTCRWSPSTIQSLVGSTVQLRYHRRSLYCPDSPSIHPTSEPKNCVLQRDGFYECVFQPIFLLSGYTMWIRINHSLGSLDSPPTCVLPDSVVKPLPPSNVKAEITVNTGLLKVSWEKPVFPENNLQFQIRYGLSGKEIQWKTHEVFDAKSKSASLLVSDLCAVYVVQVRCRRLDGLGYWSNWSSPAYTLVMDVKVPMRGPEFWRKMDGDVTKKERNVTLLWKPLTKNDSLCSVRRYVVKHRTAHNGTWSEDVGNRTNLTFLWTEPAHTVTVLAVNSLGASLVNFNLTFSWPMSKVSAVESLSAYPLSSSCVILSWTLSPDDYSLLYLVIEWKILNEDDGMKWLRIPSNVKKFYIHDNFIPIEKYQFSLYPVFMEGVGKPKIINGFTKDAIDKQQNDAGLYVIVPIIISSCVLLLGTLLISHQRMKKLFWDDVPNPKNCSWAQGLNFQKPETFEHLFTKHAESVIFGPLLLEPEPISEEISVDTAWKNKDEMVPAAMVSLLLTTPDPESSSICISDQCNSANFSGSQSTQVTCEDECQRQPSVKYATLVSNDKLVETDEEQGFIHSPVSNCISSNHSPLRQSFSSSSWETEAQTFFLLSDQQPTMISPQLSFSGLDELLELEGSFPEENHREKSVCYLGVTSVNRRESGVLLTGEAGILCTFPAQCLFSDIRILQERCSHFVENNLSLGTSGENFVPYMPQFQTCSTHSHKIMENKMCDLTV
UniProt O35718: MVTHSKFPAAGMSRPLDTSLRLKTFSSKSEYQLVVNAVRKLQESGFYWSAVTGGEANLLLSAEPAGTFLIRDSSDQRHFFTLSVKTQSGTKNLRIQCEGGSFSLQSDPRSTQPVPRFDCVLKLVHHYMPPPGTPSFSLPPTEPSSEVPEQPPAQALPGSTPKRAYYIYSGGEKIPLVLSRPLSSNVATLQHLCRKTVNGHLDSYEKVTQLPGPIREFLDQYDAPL
UniProt P42227: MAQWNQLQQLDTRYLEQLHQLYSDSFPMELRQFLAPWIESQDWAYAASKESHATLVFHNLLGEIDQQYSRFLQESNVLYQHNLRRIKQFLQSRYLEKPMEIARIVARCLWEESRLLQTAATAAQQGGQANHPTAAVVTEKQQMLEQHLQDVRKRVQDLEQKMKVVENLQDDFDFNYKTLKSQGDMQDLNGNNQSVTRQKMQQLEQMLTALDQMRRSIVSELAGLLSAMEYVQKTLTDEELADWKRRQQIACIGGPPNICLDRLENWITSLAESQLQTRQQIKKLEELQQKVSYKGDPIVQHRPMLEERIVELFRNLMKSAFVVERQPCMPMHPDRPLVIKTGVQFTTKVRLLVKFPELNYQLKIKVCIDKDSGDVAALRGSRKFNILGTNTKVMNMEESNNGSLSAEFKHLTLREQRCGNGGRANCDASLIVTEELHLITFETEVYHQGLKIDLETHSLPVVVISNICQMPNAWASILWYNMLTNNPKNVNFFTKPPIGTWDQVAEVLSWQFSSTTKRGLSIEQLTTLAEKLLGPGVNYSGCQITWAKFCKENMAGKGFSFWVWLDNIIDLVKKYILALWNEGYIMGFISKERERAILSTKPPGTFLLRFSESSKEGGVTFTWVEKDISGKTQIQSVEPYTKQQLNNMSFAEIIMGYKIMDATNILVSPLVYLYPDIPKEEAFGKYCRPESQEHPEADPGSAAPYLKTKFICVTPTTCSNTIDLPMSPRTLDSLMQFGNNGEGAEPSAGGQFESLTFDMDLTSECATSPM

Target: ObRb, the fully functional isoform of leptin receptor (mouse (endogenous in hippocampus of C57BL/6 mice)) (UniProt P48356)
Assay: co-IP; hippocampal lysates (KCl 50 mM, Tris-HCl 50 mM pH 8, EDTA 10 mM, 1% NP-40) of mice fed a standard diet or a high-fat diet and injected i.p. with vehicle or leptin (3 mg/kg); precleared, precipitated with mouse anti-ObRb or IgG control on protein G-sepharose, 6 h at 4°C, six washes; immunoblot for STAT-3 or SOCS-3

Row | Substance | binding
1 | SOCS-3 (from UniProt O35718 1-225) | binds
2 | STAT-3 (from UniProt P42227 1-770) | binds
